Measurements: the supplement of paper PMC12067093, “Discovery and optimisation of a covalent ligand for TRIM25 and its application to targeted protein ubiquitination” (Chemical Science, 2025)
This is one part of the list.

Amino acid sequences for entries named in this document (tags omitted). A change or cut given only in a name is not applied to a line headed by its entry.
UniProt Q9Y5A9: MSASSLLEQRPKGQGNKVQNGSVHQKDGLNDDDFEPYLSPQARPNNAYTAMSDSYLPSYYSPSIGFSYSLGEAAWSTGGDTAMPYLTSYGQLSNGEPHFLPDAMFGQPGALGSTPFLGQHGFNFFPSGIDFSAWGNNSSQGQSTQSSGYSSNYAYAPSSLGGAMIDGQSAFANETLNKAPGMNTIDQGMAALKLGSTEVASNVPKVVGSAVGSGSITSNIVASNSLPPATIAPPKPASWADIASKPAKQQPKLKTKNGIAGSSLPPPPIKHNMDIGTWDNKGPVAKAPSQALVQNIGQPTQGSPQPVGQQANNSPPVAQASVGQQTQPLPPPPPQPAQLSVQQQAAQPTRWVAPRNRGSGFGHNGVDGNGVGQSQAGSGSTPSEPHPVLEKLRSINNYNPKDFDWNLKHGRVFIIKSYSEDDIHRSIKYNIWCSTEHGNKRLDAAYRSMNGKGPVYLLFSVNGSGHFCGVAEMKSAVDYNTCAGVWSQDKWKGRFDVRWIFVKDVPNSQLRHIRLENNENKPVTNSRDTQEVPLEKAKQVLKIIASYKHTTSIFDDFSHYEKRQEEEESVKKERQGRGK
UniProt P61981: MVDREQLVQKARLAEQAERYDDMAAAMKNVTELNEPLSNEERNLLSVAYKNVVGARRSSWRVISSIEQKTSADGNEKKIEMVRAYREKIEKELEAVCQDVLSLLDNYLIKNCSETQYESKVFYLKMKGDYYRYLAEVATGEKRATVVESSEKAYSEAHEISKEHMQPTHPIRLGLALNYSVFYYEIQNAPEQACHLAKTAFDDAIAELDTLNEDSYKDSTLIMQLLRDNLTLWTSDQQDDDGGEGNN
UniProt P13010: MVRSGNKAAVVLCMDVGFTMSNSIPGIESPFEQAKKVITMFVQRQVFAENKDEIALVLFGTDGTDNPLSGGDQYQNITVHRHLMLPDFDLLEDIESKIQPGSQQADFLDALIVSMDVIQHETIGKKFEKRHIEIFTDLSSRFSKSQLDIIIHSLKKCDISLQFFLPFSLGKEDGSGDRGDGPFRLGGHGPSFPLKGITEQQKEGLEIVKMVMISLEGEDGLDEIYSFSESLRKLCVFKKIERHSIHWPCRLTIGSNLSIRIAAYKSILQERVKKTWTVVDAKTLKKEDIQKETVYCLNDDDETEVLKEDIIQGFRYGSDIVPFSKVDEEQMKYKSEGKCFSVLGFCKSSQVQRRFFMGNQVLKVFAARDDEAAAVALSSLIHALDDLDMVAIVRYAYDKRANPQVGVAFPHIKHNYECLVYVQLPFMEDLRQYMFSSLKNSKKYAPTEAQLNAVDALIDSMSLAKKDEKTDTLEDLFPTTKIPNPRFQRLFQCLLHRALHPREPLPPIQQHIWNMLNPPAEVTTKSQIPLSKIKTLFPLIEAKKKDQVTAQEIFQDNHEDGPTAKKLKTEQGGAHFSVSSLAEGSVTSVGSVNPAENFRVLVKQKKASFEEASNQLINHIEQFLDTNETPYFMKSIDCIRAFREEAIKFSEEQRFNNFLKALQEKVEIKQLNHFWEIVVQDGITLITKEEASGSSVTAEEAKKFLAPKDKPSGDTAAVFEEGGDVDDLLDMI
UniProt O95365: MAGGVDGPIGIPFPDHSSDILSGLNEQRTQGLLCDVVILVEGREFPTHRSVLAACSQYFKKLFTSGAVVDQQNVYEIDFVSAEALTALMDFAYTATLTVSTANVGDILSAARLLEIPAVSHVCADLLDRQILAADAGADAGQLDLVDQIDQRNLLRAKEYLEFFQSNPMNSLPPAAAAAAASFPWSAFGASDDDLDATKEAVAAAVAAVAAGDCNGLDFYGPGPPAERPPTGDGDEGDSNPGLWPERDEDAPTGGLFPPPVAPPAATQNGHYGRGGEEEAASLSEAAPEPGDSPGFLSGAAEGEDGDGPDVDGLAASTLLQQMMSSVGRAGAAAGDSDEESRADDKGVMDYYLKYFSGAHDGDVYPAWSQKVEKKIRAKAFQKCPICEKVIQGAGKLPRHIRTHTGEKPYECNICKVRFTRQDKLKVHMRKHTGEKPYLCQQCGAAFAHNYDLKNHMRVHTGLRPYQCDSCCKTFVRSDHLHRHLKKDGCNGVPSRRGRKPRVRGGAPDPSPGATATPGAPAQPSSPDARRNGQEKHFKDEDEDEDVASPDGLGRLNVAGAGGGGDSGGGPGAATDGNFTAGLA
UniProt Q6PJT7: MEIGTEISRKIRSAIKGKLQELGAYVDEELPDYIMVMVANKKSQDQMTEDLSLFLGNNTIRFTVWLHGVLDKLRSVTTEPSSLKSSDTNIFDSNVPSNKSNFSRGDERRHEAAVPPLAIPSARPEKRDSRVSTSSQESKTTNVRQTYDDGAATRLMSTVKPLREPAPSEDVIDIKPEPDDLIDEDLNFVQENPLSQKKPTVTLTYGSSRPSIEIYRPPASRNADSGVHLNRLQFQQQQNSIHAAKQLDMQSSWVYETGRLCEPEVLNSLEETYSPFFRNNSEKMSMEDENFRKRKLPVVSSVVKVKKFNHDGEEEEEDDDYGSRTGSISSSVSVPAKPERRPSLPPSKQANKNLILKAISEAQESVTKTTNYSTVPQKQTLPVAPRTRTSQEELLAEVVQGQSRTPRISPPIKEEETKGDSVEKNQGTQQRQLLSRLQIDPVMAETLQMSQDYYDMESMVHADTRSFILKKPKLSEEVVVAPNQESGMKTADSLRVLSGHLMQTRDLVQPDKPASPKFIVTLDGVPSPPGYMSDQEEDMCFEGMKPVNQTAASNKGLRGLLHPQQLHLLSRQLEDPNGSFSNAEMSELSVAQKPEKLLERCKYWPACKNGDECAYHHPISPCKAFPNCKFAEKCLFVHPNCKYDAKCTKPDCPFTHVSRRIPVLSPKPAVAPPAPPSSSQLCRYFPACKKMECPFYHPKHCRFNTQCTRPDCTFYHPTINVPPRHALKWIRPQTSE
UniProt Q8IVQ6: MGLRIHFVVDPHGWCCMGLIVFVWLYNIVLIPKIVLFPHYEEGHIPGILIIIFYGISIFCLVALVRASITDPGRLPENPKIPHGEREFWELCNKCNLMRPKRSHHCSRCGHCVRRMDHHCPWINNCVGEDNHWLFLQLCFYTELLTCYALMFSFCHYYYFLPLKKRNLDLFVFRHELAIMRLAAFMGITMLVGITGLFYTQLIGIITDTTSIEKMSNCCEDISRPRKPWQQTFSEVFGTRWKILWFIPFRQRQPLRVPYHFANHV
UniProt P12956: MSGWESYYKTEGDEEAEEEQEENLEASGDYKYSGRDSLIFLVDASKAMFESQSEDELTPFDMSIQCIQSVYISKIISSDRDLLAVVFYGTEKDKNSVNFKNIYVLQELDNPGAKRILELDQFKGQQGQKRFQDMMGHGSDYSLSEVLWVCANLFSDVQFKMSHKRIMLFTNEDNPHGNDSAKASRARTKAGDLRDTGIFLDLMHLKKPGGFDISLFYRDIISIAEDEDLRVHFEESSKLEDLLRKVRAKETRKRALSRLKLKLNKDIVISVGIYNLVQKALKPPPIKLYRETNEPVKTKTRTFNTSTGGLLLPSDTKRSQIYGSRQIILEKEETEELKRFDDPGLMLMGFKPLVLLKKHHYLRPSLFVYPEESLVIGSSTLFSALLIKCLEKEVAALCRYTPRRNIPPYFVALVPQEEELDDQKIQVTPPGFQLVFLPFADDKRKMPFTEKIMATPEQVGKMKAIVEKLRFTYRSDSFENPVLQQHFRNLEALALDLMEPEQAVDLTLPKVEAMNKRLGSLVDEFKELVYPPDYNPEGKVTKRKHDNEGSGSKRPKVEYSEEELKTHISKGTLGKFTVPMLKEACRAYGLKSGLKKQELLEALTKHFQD
UniProt O15498: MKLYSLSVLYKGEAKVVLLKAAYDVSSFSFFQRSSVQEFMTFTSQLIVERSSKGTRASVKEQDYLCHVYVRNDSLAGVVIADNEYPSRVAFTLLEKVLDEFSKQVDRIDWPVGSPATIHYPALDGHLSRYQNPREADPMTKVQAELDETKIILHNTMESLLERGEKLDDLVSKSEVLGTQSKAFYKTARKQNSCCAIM
UniProt Q8TCF1: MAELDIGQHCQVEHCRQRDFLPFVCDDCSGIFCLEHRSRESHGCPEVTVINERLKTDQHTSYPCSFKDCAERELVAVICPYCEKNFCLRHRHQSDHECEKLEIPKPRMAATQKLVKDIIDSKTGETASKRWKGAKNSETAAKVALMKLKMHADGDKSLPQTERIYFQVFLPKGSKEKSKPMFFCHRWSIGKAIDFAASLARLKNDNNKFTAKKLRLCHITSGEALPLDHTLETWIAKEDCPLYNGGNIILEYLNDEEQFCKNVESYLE
UniProt Q9NUD5: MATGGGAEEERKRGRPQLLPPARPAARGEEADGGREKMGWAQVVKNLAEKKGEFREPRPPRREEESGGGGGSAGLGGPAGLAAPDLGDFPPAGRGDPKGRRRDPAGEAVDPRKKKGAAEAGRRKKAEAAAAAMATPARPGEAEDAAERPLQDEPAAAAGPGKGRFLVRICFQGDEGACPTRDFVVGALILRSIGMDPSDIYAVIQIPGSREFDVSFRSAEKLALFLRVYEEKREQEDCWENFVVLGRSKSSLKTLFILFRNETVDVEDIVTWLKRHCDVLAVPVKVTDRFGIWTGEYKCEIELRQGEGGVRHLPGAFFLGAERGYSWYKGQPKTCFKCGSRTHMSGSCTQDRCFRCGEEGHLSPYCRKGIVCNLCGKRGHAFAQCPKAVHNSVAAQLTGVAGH
UniProt Q9BW85: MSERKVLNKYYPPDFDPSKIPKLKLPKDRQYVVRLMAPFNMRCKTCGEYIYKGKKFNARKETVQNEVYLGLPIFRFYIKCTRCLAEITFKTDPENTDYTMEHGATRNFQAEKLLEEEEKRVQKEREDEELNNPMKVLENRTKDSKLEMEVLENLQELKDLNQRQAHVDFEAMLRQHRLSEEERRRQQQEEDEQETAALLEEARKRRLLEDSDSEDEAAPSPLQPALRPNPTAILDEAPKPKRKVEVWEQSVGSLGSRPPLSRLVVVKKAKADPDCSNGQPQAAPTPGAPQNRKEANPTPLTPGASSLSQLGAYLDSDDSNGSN
UniProt Q86WB0: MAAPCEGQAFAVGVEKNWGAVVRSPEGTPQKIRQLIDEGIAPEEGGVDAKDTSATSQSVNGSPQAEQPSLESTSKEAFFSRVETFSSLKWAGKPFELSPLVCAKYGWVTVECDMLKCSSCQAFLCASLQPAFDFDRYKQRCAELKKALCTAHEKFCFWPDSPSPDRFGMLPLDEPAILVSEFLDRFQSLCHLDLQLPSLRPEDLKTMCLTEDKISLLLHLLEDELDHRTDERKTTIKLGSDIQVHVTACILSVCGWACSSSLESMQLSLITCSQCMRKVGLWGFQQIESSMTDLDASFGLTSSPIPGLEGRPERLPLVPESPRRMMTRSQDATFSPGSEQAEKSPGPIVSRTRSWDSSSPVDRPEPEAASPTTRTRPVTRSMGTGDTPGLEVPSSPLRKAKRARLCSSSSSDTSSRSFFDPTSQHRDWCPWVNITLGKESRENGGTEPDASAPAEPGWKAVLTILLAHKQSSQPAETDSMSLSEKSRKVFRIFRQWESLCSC
UniProt Q9UIA9: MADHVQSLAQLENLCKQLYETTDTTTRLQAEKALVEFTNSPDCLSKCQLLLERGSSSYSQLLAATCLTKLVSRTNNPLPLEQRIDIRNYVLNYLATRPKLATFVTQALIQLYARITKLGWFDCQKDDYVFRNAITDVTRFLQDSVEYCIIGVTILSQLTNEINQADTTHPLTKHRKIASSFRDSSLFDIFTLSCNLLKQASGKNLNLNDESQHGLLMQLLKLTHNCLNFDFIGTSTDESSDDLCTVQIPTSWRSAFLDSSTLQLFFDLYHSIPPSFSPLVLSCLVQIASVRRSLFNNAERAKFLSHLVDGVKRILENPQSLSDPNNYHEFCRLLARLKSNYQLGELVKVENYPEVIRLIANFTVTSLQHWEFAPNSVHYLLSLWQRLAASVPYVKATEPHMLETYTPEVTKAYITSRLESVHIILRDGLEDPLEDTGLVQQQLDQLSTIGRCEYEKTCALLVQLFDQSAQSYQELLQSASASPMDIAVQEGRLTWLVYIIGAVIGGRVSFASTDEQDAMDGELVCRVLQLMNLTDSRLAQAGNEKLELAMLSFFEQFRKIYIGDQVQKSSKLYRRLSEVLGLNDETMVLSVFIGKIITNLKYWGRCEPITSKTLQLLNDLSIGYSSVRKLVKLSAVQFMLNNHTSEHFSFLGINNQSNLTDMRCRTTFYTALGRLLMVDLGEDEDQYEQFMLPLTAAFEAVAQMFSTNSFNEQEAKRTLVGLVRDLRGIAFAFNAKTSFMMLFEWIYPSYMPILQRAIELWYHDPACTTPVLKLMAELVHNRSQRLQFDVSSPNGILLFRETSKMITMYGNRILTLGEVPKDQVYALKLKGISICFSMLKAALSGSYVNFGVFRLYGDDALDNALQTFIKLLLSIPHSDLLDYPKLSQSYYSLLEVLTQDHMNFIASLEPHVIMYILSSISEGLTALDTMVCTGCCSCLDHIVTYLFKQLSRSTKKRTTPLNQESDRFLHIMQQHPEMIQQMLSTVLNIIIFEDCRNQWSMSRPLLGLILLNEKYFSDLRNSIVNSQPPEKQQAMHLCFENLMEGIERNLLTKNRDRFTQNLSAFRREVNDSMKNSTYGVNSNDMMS

Compound: Cc1cc(ccc1-c1ccccc1)C(=O)N1CCCN(CC1)C(=O)CCl [compound 10]
Test: probe-labelled cysteine peptide fold change vs DMSO (competition) (log2 fold change); higher = less target engagement (more negative = stronger competition)
Conditions: 10 µM; THP-1; incubation time: 4 h
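Further: competitive profiling in live THP-1 cells: cysteine peptides tagged with an iodoacetamide desthiobiotin (IA-DTB) probe, intensity after compound treatment relative to DMSO-treated cells.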

Target | probe-labelled cysteine peptide fold change
YTHDF2_Q9Y5A9_433_YNIWCSTEHGNK (UniProt Q9Y5A9) | 0.0838
YEATS2_Q9ULM3_565_QEDSLFASMPPLCPIGSHPK (UniProt Q9ULM3) | -0.301
YEATS2_Q9ULM3_1173_SEDASCFSAK (UniProt Q9ULM3) | -0.295
XPO5_Q9HAV4_847_FFSTLYENCFHILGK (UniProt Q9HAV4) | 0.0606
YBEY_P58557_121_ENEDYNDVLTVTATHGLCHLLGFTHGTEAEWQQMFQK (UniProt P58557) | 0.239
YWHAG_P61981_112_NCSETQYESK (UniProt P61981) | 0.0697
XPO5_Q9HAV4_941_SLLCGEDEAADENPESQEMLEEQLVR (UniProt Q9HAV4) | -0.239
XRCC5_P13010_493_LFQCLLHR (UniProt P13010) | -0.18
XPOT_O43592_522_FFTVEPQHIPCVLMAFLDHR (UniProt O43592) | 0.114
ZDHHC5_Q9C0B5_245_VLCSSPAPR (UniProt Q9C0B5) | 0.0101
ZBTB7A_O95365_123_LLEIPAVSHVCADLLDR (UniProt O95365) | 0.0274
ZC3H14_Q6PJT7_607_YWPACK (UniProt Q6PJT7) | 0.102
ZC3H14_Q6PJT7_628_AFPNCK (UniProt Q6PJT7) | 0.0996
ZDHHC21_Q8IVQ6_112_CGHCVR (UniProt Q8IVQ6) | 0.0718
ZC3H7A_Q8IWR0_894_VFHTEDDQYCWQHR (UniProt Q8IWR0) | -0.0643
XRCC6_P12956_398_EVAALCR (UniProt P12956) | -0.0233
YKT6_O15498_66_EQDYLCHVYVR (UniProt O15498) | 0.139
ZFAND1_Q8TCF1_44_ESHGCPEVTVINER (UniProt Q8TCF1) | -0.0255
ZC3HAV1_Q7Z2W4_174_LHICDHFTR (UniProt Q7Z2W4) | -0.0265
ZC3HAV1_Q7Z2W4_15_ILCAHGGR (UniProt Q7Z2W4) | 0.177
ZCCHC3_Q9NUD5_356+366_CGEEGHLSPYCR (UniProt Q9NUD5) | -0.00844
YJU2_Q9BW85_275_AKADPDCSNGQPQAAPTPGAPQNR (UniProt Q9BW85) | 0.0357
ZC3HC1_Q86WB0_102_WAGKPFELSPLVCAK (UniProt Q86WB0) | -0.137

Same assay, conditions: 50 µM; THP-1; incubation time: 4 h

Target | probe-labelled cysteine peptide fold change
XRN2_Q9H0D6_21_KYPSIIVNCVEEK (UniProt Q9H0D6) | 0.603
YTHDC2_Q9H6S0_25_QPAPGGGGGGGPSPCGPGGGGR (UniProt Q9H6S0) | -0.35
ZDHHC4_Q9NPG8_337_SNLQEIFLPAFPCHER (UniProt Q9NPG8) | -0.318
YY1_P25490_385_IHTGDRPYVCPFDGCNKK (UniProt P25490) | -0.238
YWHAZ_P63104_94_DICNDVLSLLEK (UniProt P63104) | 0.309
XPO7_Q9UIA9_123_LGWFDCQK (UniProt Q9UIA9) | 0.232
XRCC3_O43542_310_LREEEAALGCPAR (UniProt O43542) | -0.408
ZFAT_Q9P243_392_EALDELCLMTR (UniProt Q9P243) | -0.0057
ZFAND2B_Q8WV99_134_HRHPLDHDCSGEGHPTSR (UniProt Q8WV99) | 0.178
YWHAE_P62258_98_LICCDILDVLDK (UniProt P62258) | -0.323
ZC3H12D_A2A288_266_CTYGIK (UniProt A2A288) | -0.00714
ZC3H7A_Q8IWR0_515_DVAAEEECR (UniProt Q8IWR0) | -0.0963
ZC3HAV1L_Q96H79_108_GECQACDQLHFCR (UniProt Q96H79) | 0.0578
ZC3H10_Q96K80_79_NEFIFCHDFQNK (UniProt Q96K80) | 0.18
XPO7_Q9UIA9_66_GSSSYSQLLAATCLTK (UniProt Q9UIA9) | 0.231
ZCCHC3_Q9NUD5_385_GHAFAQCPK (UniProt Q9NUD5) | -0.0115
XRCC1_P18887_615_WIYSCNEK (UniProt P18887) | -0.0466
YTHDF2_Q9Y5A9_433_YNIWCSTEHGNK (UniProt Q9Y5A9) | 0.118
YEATS2_Q9ULM3_565_QEDSLFASMPPLCPIGSHPK (UniProt Q9ULM3) | -0.418
YEATS2_Q9ULM3_1173_SEDASCFSAK (UniProt Q9ULM3) | -0.0796

Target | probe-labelled cysteine peptide fold change
XPO5_Q9HAV4_847_FFSTLYENCFHILGK (UniProt Q9HAV4) | 0.469
YBEY_P58557_121_ENEDYNDVLTVTATHGLCHLLGFTHGTEAEWQQMFQK (UniProt P58557) | -0.191
YWHAG_P61981_112_NCSETQYESK (UniProt P61981) | 0.155
XPO5_Q9HAV4_941_SLLCGEDEAADENPESQEMLEEQLVR (UniProt Q9HAV4) | -0.228
XRCC5_P13010_493_LFQCLLHR (UniProt P13010) | 0.0388
XPOT_O43592_522_FFTVEPQHIPCVLMAFLDHR (UniProt O43592) | -0.0413
ZDHHC5_Q9C0B5_245_VLCSSPAPR (UniProt Q9C0B5) | -0.0764
ZBTB7A_O95365_123_LLEIPAVSHVCADLLDR (UniProt O95365) | 0.227
ZC3H14_Q6PJT7_607_YWPACK (UniProt Q6PJT7) | -0.0327
ZC3H14_Q6PJT7_628_AFPNCK (UniProt Q6PJT7) | -0.221
ZDHHC21_Q8IVQ6_112_CGHCVR (UniProt Q8IVQ6) | -0.0337
ZC3H7A_Q8IWR0_894_VFHTEDDQYCWQHR (UniProt Q8IWR0) | -0.276
XRCC6_P12956_398_EVAALCR (UniProt P12956) | 0.277
YKT6_O15498_66_EQDYLCHVYVR (UniProt O15498) | 0.289
ZFAND1_Q8TCF1_44_ESHGCPEVTVINER (UniProt Q8TCF1) | -0.0191
ZC3HAV1_Q7Z2W4_174_LHICDHFTR (UniProt Q7Z2W4) | -0.382
ZC3HAV1_Q7Z2W4_15_ILCAHGGR (UniProt Q7Z2W4) | -0.105
ZCCHC3_Q9NUD5_356+366_CGEEGHLSPYCR (UniProt Q9NUD5) | -0.0651
YJU2_Q9BW85_275_AKADPDCSNGQPQAAPTPGAPQNR (UniProt Q9BW85) | -0.323
ZC3HC1_Q86WB0_102_WAGKPFELSPLVCAK (UniProt Q86WB0) | -0.533
